From PubChem BioAssay AID504327 (National Center for Advancing Translational Sciences (NCATS), 2011)
Several values for one entry are separate records, joined by “and”; a condition that tells them apart may be missing. Equal entries are not always repeated. The campaign covered roughly 390,000 compounds. About 820 (0.21%) were called active. Inconclusive means that the source gave no clear call. Such entries were picked first, then a sample of the others. The call rests on the fitted dose curve; in most records, active means well fitted inhibition curve with a large enough effect; inconclusive means small, poorly fitted or top-dose-only effect, or another doubt; inactive means no such curve, though single readings can be large or run the other way. Potencies of inconclusive entries are doubtful fits and often do not repeat.
On the % scale 0 is the no-effect control and ±100 the full control effect; potency means the concentration at half of the fitted maximal effect.

Sequences of proteins named here, by UniProt entry; tags and fusion partners are left off.
UniProt Q92830, whole entry, looked up: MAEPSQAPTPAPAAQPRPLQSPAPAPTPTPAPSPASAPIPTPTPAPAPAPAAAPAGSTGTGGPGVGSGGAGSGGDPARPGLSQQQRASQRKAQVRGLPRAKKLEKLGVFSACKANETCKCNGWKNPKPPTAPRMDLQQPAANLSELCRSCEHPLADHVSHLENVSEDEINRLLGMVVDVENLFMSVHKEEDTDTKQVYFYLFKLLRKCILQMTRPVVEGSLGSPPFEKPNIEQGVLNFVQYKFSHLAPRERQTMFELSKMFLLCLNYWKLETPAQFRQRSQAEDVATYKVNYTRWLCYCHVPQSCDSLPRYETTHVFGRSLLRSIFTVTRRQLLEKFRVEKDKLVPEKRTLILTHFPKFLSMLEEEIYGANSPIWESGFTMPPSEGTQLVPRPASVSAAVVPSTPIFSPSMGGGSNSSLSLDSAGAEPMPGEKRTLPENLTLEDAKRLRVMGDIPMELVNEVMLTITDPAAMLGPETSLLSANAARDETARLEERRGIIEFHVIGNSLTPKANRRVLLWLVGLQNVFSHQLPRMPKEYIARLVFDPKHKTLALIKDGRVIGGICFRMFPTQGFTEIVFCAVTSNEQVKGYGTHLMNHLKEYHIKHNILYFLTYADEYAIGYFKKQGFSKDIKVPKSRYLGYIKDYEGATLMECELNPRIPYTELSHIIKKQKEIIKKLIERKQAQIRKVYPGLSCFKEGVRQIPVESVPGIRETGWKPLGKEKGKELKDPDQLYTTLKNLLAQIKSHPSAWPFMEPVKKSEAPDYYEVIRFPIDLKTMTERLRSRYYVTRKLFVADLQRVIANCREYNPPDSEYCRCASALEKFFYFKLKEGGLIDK

These compounds were tested against Histone acetyltransferase KAT2A (Homo sapiens) (UniProt Q92830) (assay: qHTS Assay for Inhibitors of GCN5L2). Conditions: GCN5L2 HAT assay, ThioGlo1 CoA-SH fluorescence; series mostly up to 58.9 µM.
In short: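 Compounds, pin-transferred from DMSO stocks, meet 20nM GCN5L2 for 15 min before the reaction begins with H3(1-25) peptide (75uM) and acetyl-CoA (70uM). Thiol-reactive ThioGlo1 reports CoA release over 20 min at room temperature.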
`CCOC(=O)C1CCN(CCC(=O)Nc2cccc(C)c2)CC1` was tested, and the Potency was inconclusive: 8.91 µM [inhibitor, single point]. In the case of `C#CCOCCOCCOCCNc1nc(N2CCN(C(=O)[C@H]([C@@H](C)CC)n3cc([C@@H](N)CO)nn3)CC2)nc(N2CCN(C(=O)[C@H]([C@@H](C)CC)n3cc([C@@H](N)CO)nn3)CC2)n1`, the Potency is reported as “inactive”. In the case of `CCN(CC(=O)NCc1cccs1)C(=O)/C=C/c1cc(OC)ccc1OC`, the Potency is reported as inconclusive: 39.8 µM [inhibitor, single point]. In the case of `COC(=O)c1c(-c2cccs2)csc1NC(=O)c1cccc(Cl)c1`, the Potency is reported as inconclusive: 31.6 µM [inhibitor, single point]. For `COC(=O)c1c(-c2cccs2)csc1NC(=O)c1ccc(Br)cc1`, the Potency was inconclusive: 14.1 µM [inhibitor, partial curve]. With `Cc1cc(=O)n2nc(N3CCCC3C(=O)Nc3cccc(Cl)c3C)sc2n1` (configuration not stated) the Potency was “inactive”. In the case of `CCn1c(CN2CCOCC2)nc2cc(NC(=O)c3ccccc3[N+](=O)[O-])ccc21`, the Potency is reported as “inactive”. In the case of `CCC1CN(C(=O)N2CCC(C(=O)NCCc3cc(OC)ccc3OC)CC2)c2ccccc2O1` (configuration not stated), the Potency is reported as “inactive”. For `Cc1cccc(OCC(=O)Nc2cc(NC(=O)COc3cccc(C)c3C)cc(C(=O)O)c2)c1C`, the Potency was inconclusive: 39.8 µM [inhibitor, single point]. `Cc1cccc2c1NC(=O)C2(O)N1CCCC(C)C1` (configuration not stated) was tested, and the Potency was inconclusive: 7.08 µM [inhibitor, single point]. With `Cc1cc(Cl)ccc1NC(=O)Cn1nc(C)c2c(C)n(-c3ccccc3)nc2c1=O` the Potency was inconclusive: 31.6 µM [inhibitor, partial curve]. `CCOC(=O)C1CCN(Cc2nc3ccc(Cl)cc3n2CCO)CC1` was tested, and the Potency was inconclusive: 39.8 µM [inhibitor, single point]. For `CCSc1nnc(NC(=O)CSc2nnc(C)c(=O)n2N)s1`, the Potency was inconclusive: 0.631 µM [inhibitor, partial curve, poor fit]. For `CC(C)CC(=O)Nc1nnc(SCC(=O)NC2CCCCC2)s1`, the Potency was inconclusive: 0.316 µM [inhibitor, full curve]. With `COc1ccc(CNc2nc(-c3ccccc3)nn2S(=O)(=O)c2ccccc2)cc1` the Potency was “inactive”. `CC(C)(C)C(=O)Nc1c2c(nn1-c1ccccc1)CSC2` was tested, and the Potency was “inactive”. In the case of `O=C(Cc1cccs1)NC1C(=O)N2C(C(=O)[O-])=C(C[n+]3ccccc3)CSC12` (configuration not stated), the Potency is reported as inconclusive: 20 µM [inhibitor, single point]. For `COCCNC(=O)C(OC(=O)C1=Cc2ccccc2OC1)C(C)C` (configuration not stated), the Potency was inconclusive: 35.5 µM [inhibitor, single point]. With `COc1ccc(OC)c(C2CC(=O)N3CN(c4cccc(Cl)c4C)CSC3=C2C#N)c1` (configuration not stated) the Potency was active: 25.1 µM. `CCOC(=O)/C=C/C(=O)Nc1cccc([N+](=O)[O-])c1` was tested, and the Potency was inconclusive: 39.8 µM [inhibitor, single point]. `CN(Cc1cnc2nc(N)nc(N)c2n1)c1ccc(C(=O)N[C@@H](CCC(=O)O)C(=O)O)cc1` was tested, and the Potency was inconclusive: 31.6 µM [inhibitor, single point] [middle of 4 runs]. With `Cc1ccc(NC(=O)CSc2nc3ccccc3nc2N2CCOCC2)c(C)c1` the Potency was inconclusive: 3.16 µM [inhibitor, partial curve]. In the case of `Cc1ccc(-c2nnc(Nc3ccc(OC(F)(F)Cl)cc3)c3ccccc23)cc1S(=O)(=O)NC(C)(C)CO`, the Potency is reported as “inactive”. In the case of `N#Cc1c(N)sc(=S)c2c1CCCCC2`, the Potency is reported as inconclusive: 28.2 µM [inhibitor, single point]. In the case of `Nc1ccc(NC(=O)c2cccc(C(=O)Nc3ccc(N)cc3Cl)c2)c(Cl)c1`, the Potency is reported as inconclusive: 0.1 µM [inhibitor, full curve, poor fit]. `Cc1cc(=O)oc2c(CN3CCCCC3)c(O)c(Cl)cc12` was tested, and the Potency was inconclusive: 15.8 µM [inhibitor, partial curve]. For `CC1(C)Cc2c(sc3nc(=S)[nH]c(N)c23)CO1`, the Potency was “inactive”. `CCOc1ccc2nc3cc(N)ccc3c(N)c2c1` was tested, and the Potency was inconclusive: 39.8 µM [inhibitor, single point] and inconclusive: 25.1 µM [inhibitor, single point]. In the case of `Cc1[nH]n2c(=O)cc(-c3ccc(Cl)cc3)nc2c1-c1ccccc1`, the Potency is reported as inconclusive: 39.8 µM [inhibitor, single point]. With `COc1ccccc1C1CC(=O)Oc2cc(C)c(Br)c(C)c21` (configuration not stated) the Potency was inconclusive: 31.6 µM [inhibitor, partial curve, poor fit]. `CC1=CCC2C(=O)N(C(C)c3ccccc3)C(=O)C2C1` (configuration not stated) was tested, and the Potency was “inactive”. For `Cc1ccc(OCc2cc(C(=O)N(C)CC3CCOCC3)no2)cc1C`, the Potency was “inactive”. `CC(C)(C)SCCNC(=O)CN(c1ccc(F)c(Cl)c1)S(C)(=O)=O` was tested, and the Potency was inconclusive: 1.26 µM [inhibitor, full curve, poor fit]. In the case of `COc1ccc(N2CCN(C(CNC(=O)C(=O)NCc3cccnc3)c3cccnc3)CC2)cc1` (configuration not stated), the Potency is reported as “inactive”. With `CCOc1ccc(NC(=O)C2CCN(c3nnc(C)c4c(C)n(-c5ccccc5)nc34)CC2)cc1` the Potency was inconclusive: 0.708 µM [inhibitor, single point]. `COC(=O)C1=C(C)N(Cc2ccc(OC)cc2)C(=O)/C1=C\c1ccco1` was tested, and the Potency was inconclusive: 39.8 µM [inhibitor, partial curve, poor fit]. `Cc1ccc(/C=C/C(=O)NCc2cccs2)cc1` was tested, and the Potency was “inactive”. With `COc1ccc(-c2nc(CN3CCC(C(=O)N4CCOCC4)CC3)c(C)o2)c(OC)c1` the Potency was inconclusive: 1.78 µM [inhibitor, full curve, poor fit]. `COc1ccccc1N1N=C(c2ccc([N+](=O)[O-])cc2)CC1c1ccccc1` (configuration not stated) was tested, and the Potency was “inactive”. For `Cc1ccc(C)n1C(Cc1ccccc1)C(=O)O` (configuration not stated), the Potency was active: 22.4 µM. `CC1=C(/C=C/C(C)=C/C=C/C(C)=C\C(=O)O)C(C)(C)CCC1` was tested, and the Potency was “inactive”. For `CC[C@H]1C(c2cccc(C)c2)=NN(c2ccccc2)[C@@H]1CO`, the Potency was inconclusive: 28.2 µM [inhibitor, partial curve, poor fit]. `CSc1ccc(Cl)c(C(=O)NNC(=O)c2csc(N3CCOCC3)n2)c1` was tested, and the Potency was “inactive”. With `CCCn1c(=O)[nH]c(=O)c2c(C(=O)OCC)cc(-c3cccs3)nc21` the Potency was inconclusive: 39.8 µM [inhibitor, single point]. In the case of `O=C1C(Cl)=C(NCCCO)C(=O)c2ccccc21`, the Potency is reported as “inactive”. `CC(=O)c1ccc(NCC2COc3ccccc3O2)c([N+](=O)[O-])c1` (configuration not stated) was tested, and the Potency was inconclusive: 8.91 µM [inhibitor, single point]. With `COCCn1c(SCC(=O)Nc2ccc(F)cc2F)nc2c([nH]c3ccccc32)c1=O` the Potency was inconclusive: 0.794 µM [inhibitor, single point]. `CC(/C=C1\SC(=S)N(C(C(=O)O)c2ccccc2)C1=O)=C\c1ccccc1` (configuration not stated) was tested, and the Potency was inconclusive: 35.5 µM [inhibitor, single point]. In the case of `COc1cc2nc(NC(=O)c3ccc(S(=O)(=O)N4CCc5ccccc54)cc3)sc2cc1OC`, the Potency is reported as inconclusive: 39.8 µM [inhibitor, single point]. In the case of `COc1cccc(-c2nc3c(C#N)c[nH]n3c2NC2CCCC2)c1OC`, the Potency is reported as “inactive”. In the case of `O=C1OCCN1C(=O)[C@H]1[C@H](c2ccc([N+](=O)[O-])cc2)C(c2ccccc2)=NN1c1ccccc1`, the Potency is reported as inconclusive: 22.4 µM [inhibitor, partial curve, poor fit]. With `CCOc1ccc(-n2c(N)c(C(=O)NCC3CCCO3)sc2=S)cc1` (configuration not stated) the Potency was inconclusive: 25.1 µM [inhibitor, single point]. For `CC1=CC2=C(OC1N(C)C)c1cccc3cccc(c13)C2=O` (configuration not stated), the Potency was “inactive”. In the case of `O=C(COc1ccc2ccc(=O)oc2c1)NC1CCN(Cc2ccccc2)CC1`, the Potency is reported as inconclusive: 0.891 µM [inhibitor, single point]. For `O=C(N/N=C/c1ccc(OC(=O)c2ccccc2Cl)cc1)c1ccc(O)cc1`, the Potency was inconclusive: 0.794 µM [inhibitor, full curve, poor fit]. In the case of `CNC(=O)c1[nH]cnc1C(=O)Nc1ccccn1`, the Potency is reported as “inactive”. With `COc1ccc(C(=O)COC(=O)c2ccccc2NS(=O)(=O)c2ccc(O)c([N+](=O)[O-])c2)cc1` the Potency was inconclusive: 31.6 µM [inhibitor, single point]. In the case of `COc1ccccc1CNC(=O)c1cn(C)c(=O)c2cc(OC)c(OC)cc12`, the Potency is reported as “inactive”. For `O=C(c1ccco1)N1CCN(c2nc(C3CC3)nc3sc4c(c23)CCCC4)CC1`, the Potency was “inactive”. With `Clc1ccc(C2[C@H]3CN(Cc4cccnc4)[C@H](c4ccccc4)C34CC2(c2ccccc2)C4)cn1` (some centres not stated) the Potency was inconclusive: 17.8 µM [inhibitor, partial curve, poor fit]. `O=C(Cc1ccc(F)cc1)N1CCN(c2ccc([N+](=O)[O-])cc2)CC1` was tested, and the Potency was inconclusive: 8.91 µM [inhibitor, single point]. With `Cc1ccc(-c2nc3c(c(=O)c4ccccc4n3C)c(=O)n2Cc2ccco2)cc1` the Potency was inconclusive: 0.708 µM [inhibitor, full curve, poor fit]. For `COC(=O)N1C(=O)[C@](c2ccccc2)(C(C)C)N1C(=O)OC`, the Potency was “inactive”. `COc1ccc(CCNc2ncnc3cc(OC)c(OC)cc23)cc1OC` was tested, and the Potency was “inactive”. In the case of `Cc1nc(-c2ccccn2)sc1C(=O)Nc1ccc(F)cc1`, the Potency is reported as inconclusive: 0.794 µM [inhibitor, single point]. In the case of `Cc1cc(Cl)c2oc(C(=O)N(C)C(C)c3ccccn3)c(C)c2c1` (configuration not stated), the Potency is reported as inconclusive: 3.55 µM [inhibitor, full curve, poor fit]. In the case of `CN(C)CCCNC(CC(=O)Nc1cccc([N+](=O)[O-])c1)C(=O)O` (configuration not stated), the Potency is reported as “inactive”.
